Inconclusive means that the source gave no clear call. Such entries were picked first, then a sample of the others. A potency beside an inconclusive call is a rough fit, not a confirmed value. Calls of active or inactive are those of the source. Rule for the calls: active = hit-call score of the fitted dose curve at least 0.9, where 1 is the maximum; inconclusive = response in the unintended direction; inactive = score below 0.9.
test: CLD_ACTIN_24hr: CellzDirect (CLD) Gene Expression Assay for Baseline Control (Actin) at 24 hours (AID 2283670)
Experimental: CLD_24hr is a cell-based, multiplexed-readout assay that uses hepatocyte, a human liver primary cell, with measurements taken at 24 hours after chemical dosing in a 96-well plate.CLD_ACTIN_24hr is one of 16 assay component(s) measured or calculated from the CLD_24hr assay. It is designed to make measurements of mRNA induction, a form of inducible reporter, as detected with chemiluminescence signals by Quantitative Nuclease Protection Assay (qNPA) technology.Data from the assay component CLD_ACTIN_24hr was analyzed at the endpoint, CLD_ACTIN_24hr, in the positive analysis fitting direction relative to DMSO as the negative control and baseline of activity. Using a type of inducible reporter, gain-of-signal activity can be used to understand changes in the reporter gene as they relate to the gene ACTA1. Furthermore, this assay endpoint can be referred to as a secondary readout, because this assay has produced multiple assay endpoints where this one serves a background control function. To generalize the intended target to other relatable targets, this assay endpoint is annotated to the background measurement intended target family, where subfamily is baseline control.
Human hepatocyte cultures were treated daily for two consecutive days with fresh dosing solutions containing appropriate concentrations of the 320 ToxCast chemicals (chemical identities were blinded to CellzDirect and other ToxCast collaborators), vehicle control (0.2% DMSO), and positive control inducers as summarized in Table 1. Due to the large number of treatment groups and chemicals examined, the ToxCast chemicals were divided into two groups (spanning two independent cultures of hepatocytes from separate donor preparations (Hu778: ToxCast plates 1 and 2; Hu776: ToxCast plates 3 and 4). Each preparation of human hepatocyte cultures was treated with respective vehicle control, medium only control, set of six positive controls/reference chemicals for the five hepatic receptor pathways, and a subset of eight of the ToxCast chemicals (indoxacarb, pyrithiobac-sodium, norflurazon, cyhalofop-butyl, methomyl, thiram, acetochlor, and propiconazole). These replicate data, coupled with internal replicates designed within the blinded ToxCast chemical library, provided additional data to evaluate interindividual differences between hepatocyte preparations and their potential impact on chemical profiles.Cell morphology and integrity were evaluated using phase-contrast microscopy as an indicator of hepatocyte cell health (Tyson & Green, 1987). Cultures for each treatment group (i.e., media, vehicle [0.2% DMSO], positive control inducers [multiple concentrations], and the ToxCast chemicals [multiple concentrations]) were observed and cell morphology was assessed relative to vehicle control cultures at each harvest time point (0, 6, 24, or 48 h). […] Images were evaluated at the conclusion of the study to assess changes in cell integrity and account for the effects of chemical exposure on uncharacteristic changes in concentration-dependent gene expression profiles. The results from these determinations of apparent cytotoxicity were annotated (yes/no) alongside the corresponding qNPA data for reference.At the conclusion of each treatment period, hepatocyte cultures (96-well) were washed with 1 volume of HBSS, lysed by addition of 25 ul ArrayPlate lysis buffer (HTG, Tucson, AZ), and 70 ul/well of Denaturation Oil, denatured by incubation at 95C for 10 min, and frozen at approximately -70C until analysis by nuclease protection assay (qNPA) (Roberts et al., 2007). For qNPA analysis, cell lysates were thawed at 50C for approximately 30 min, qNPA probes were added, and samples were incubated at 95C for 10 min to begin the detection process by denaturing the target RNA, dissociating the duplexes and secondary structure hybridization. At the conclusion of the hybridization period, S1 nuclease reagent was added to each sample to digest all nonprotected nucleotides at 50C for 60-90 min. […]

Structure (SMILES) | AC50 | outcome
Clc1ccccc1-c1nnc(-c2ccccc2Cl)nn1 | inconclusive: 0.0517 µM | 
COc1nc(C)nc(NC(=O)NS(=O)(=O)c2ccccc2Cl)n1 | inconclusive: 20 µM | inactive
N#Cc1c(Cl)c(Cl)c(Cl)c(C#N)c1Cl | inconclusive: 2 µM | 
C#CCN1C(=O)COc2cc(F)c(N3C(=O)C4=C(CCCC4)C3=O)cc21 | inconclusive: 20 µM | 
CCC(C)(NC(=O)c1cc(Cl)c(C)c(Cl)c1)C(=O)CCl (stereo not given) | inconclusive: 20 µM | 
O=C1C2CC=CCC2C(=O)N1SC(Cl)(Cl)Cl (stereo not given) |  | inactive
CNC(=O)Oc1cccc(N=CN(C)C)c1 |  | inactive
CC(C)N(C(=O)COc1nnc(C(F)(F)F)s1)c1ccc(F)cc1 |  | inactive
CCC(CC)Nc1c([N+](=O)[O-])cc(C)c(C)c1[N+](=O)[O-] | inconclusive: 20 µM | 
COP(=S)(OC)SCn1nnc2ccccc2c1=O | inconclusive: 20 µM | 
CCN(CC)C(=O)SCc1ccc(Cl)cc1 | inconclusive: 37.5 µM | 
CCCCC(O)(Cn1cncn1)c1ccc(Cl)cc1Cl (stereo not given) |  | inactive
CCC(=NOC/C=C/Cl)C1=C(O)CC(C2CCOCC2)CC1=O (stereo not given) |  | inactive
CC(C)(C)c1ccc(CSc2cnn(C(C)(C)C)c(=O)c2Cl)cc1 |  | inactive
C=CCOC(=O)C(C)(C)OC(=O)c1cc(-n2c(=O)cc(C(F)(F)F)n(C)c2=O)ccc1Cl | inconclusive: 1.48 µM | 
CNC(=O)N(C)c1nnc(C(C)(C)C)s1 | inconclusive: 20 µM | 
COc1ccc(C(c2ccc(OC)cc2)C(Cl)(Cl)Cl)cc1 | inconclusive: 12.4 µM | 
COP(=S)(OC)Oc1ccc(SC)c(C)c1 | inconclusive: 33.6 µM | 
COc1cccc(C(=O)NN(C(=O)c2cc(C)cc(C)c2)C(C)(C)C)c1C |  | inactive
CCCSP(=O)(OCC)SCCC | inconclusive: 36.2 µM | 

Structure (SMILES) | AC50 | outcome
COc1nc(C)nc(NC(=O)NS(=O)(=O)c2ccccc2CCC(F)(F)F)n1 | inconclusive: 20 µM | 
O=C(O)CCCOc1ccc(Cl)cc1Cl |  | inactive
Cc1c(F)c(F)c(COC(=O)C2C(/C=C(\Cl)C(F)(F)F)C2(C)C)c(F)c1F (stereo not given) |  | inactive
CCOC(=O)C(C)OC(=O)c1cc(Oc2ccc(C(F)(F)F)cc2Cl)ccc1[N+](=O)[O-] (stereo not given) | inconclusive: 12.7 µM | 
CCCCOC(=O)[C@@H](C)Oc1ccc(Oc2ccc(C#N)cc2F)cc1 |  | inactive
COP(=S)(OC)Oc1nc(Cl)c(Cl)cc1Cl | inconclusive: 20 µM | 
Cc1cc(C2CC2)nc(Nc2ccccc2)n1 | inconclusive: 20 µM | 
COC(=O)c1ccccc1C(=O)OC |  | inactive
CC(C)(C)C(=O)C(Oc1ccc(Cl)cc1)n1cncn1 (stereo not given) | inconclusive: 5.52 µM | 
CC(C)(C)C(O)C(Oc1ccc(Cl)cc1)n1cncn1 (stereo not given) | inconclusive: 20 µM | 
CNC(=O)ON=C(SC)C(=O)N(C)C |  | inactive
CN(C)c1nc(=O)n(C2CCCCC2)c(=O)n1C |  | inactive
COP(=O)(OC)SCn1c(=O)oc2cc(Cl)cnc21 | inconclusive: 3.97 µM | 
CCON=C(CC)C1=C(O)CC(c2c(C)cc(C)cc2C)CC1=O (stereo not given) | inconclusive: 20 µM | 
C=CCC1=C(C)C(OC(=O)C2C(C=C(C)C)C2(C)C)CC1=O (stereo not given) |  | inactive
CCNP(=S)(OC)O/C(C)=C/C(=O)OC(C)C (stereo not given) | inconclusive: 7.63 µM | 
O=C(O)COc1nc(Cl)c(Cl)cc1Cl | inconclusive: 20 µM | 
Cc1c(COC(=O)[C@@H]2[C@H](/C=C(\Cl)C(F)(F)F)C2(C)C)cccc1-c1ccccc1 |  | inactive
C[N+]1(C)CCCCC1 |  | inactive

A second format for 2 compounds above:

| Structure (SMILES) | AC50 | outcome |
| --- | --- | --- |
| C=CCC1=C(C)C(OC(=O)C2C(C=C(C)C)C2(C)C)CC1=O (stereo not given) |  | inactive |
| Cc1c(COC(=O)[C@@H]2[C@H](/C=C(\Cl)C(F)(F)F)C2(C)C)cccc1-c1ccccc1 |  | inactive |
